# Values from PubChem BioAssay AID743454 (Peter MacCallum Cancer Centre, 2014)
# Screen: 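Genes whose loss kills vorinostat-resistant colon cancer cells under vorinostat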 (primary screen)
# Cell system: human HCT116-VR colon cancer cells, selected for vorinostat resistance
# Reagent: siRNA pool against human genes, 40 nM siRNA pool
# Timing: vorinostat for 24 h, read-out about 72 h after transfection
# Treatment: vorinostat at 2.5 µM final
# Read-out: 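Cell viability by CellTiter-Fluor and caspase 3/7 activity by luminescence, each scaled to mock wells per plate, duplicates averaged, then robust z-scored over all plates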
# Direction: viability robust z-score: higher = more viable cells than screen typical; caspase robust z-score: higher = more caspase 3/7 activity than screen typical
# Rule for the call: 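a knock-down is a hit when classed RV1 or RV2 for lowered viability, or CA1 or CA2 for caspase activation; those lethal without drug were dropped; hits were retested singly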
# The deposit covers about 18,000 reagents; shown is an unselected part. 450 of them (2.5%) count as active. 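Single biological run; no consistent viability z cut-off exists, so the class columns, not z-scores, define the calls.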 Unmarked entries are inactive. Reagents against one gene are numbered here. Reagent sequences are not shown.
gene knocked down,reagent no.,viability hit class,caspase hit class,viability robust z-score,caspase robust z-score
RFLNB (GeneID 359845),1,no change,no change,-1.36,2.54
ZNF707 (GeneID 286075),1,no change,no change,0.39,-0.92
AGO3 (GeneID 192669),1,no change,no change,1.86,0.06
MTMR14 (GeneID 64419),1,no change,no change,-0.4,2.79
RPS21 (GeneID 6227),1,no change,no change,-4.55,-0.26
TAF10 (GeneID 6881),1,no change,no change,0.26,-0.28
IGFBP1 (GeneID 3484),1,no change,no change,-0.01,-1.27
HRH1 (GeneID 3269),1,no change,no change,0.16,-0.1
COLEC10 (GeneID 10584),1,no change,no change,0.35,-0.6
RIPK4 (GeneID 54101),1,no change,no change,0.06,-0.37
CTPS1 (GeneID 1503),1,no change,no change,0.31,-0.63
ANP32CP (GeneID 23520),1,no change,no change,-1.74,0.06
SLC11A1 (GeneID 6556),1,no change,no change,0.14,0.18
SNX29 (GeneID 92017),1,no change,no change,-0.26,1.36
SNX29 (GeneID 92017),2,no change,no change,0.88,0.72
SCN3A (GeneID 6328),1,no change,no change,-0.52,-0.72
PLCH2 (GeneID 9651),1,no change,no change,-0.68,2.42
IFT38 (GeneID 23059),1,no change,no change,0.8,2.44
FAM177B (GeneID 400823),1,no change (active),CA2 (caspase activation),-4.88,7.11
TUBB2B (GeneID 347733),1,no change,no change,-0.3,1.14
C6orf89 (GeneID 221477),1,no change,no change,1,-0.66
KCNK16 (GeneID 83795),1,no change,no change,-2.44,3.25
MAEA (GeneID 10296),1,no change,no change,0.91,-0.2
CHSY1 (GeneID 22856),1,no change,no change,-0.2,1.79
FBXO22 (GeneID 26263),1,no change,no change,-0.09,-0.16
ZNF507 (GeneID 22847),1,no change,no change,0.24,-0.04
ANGPTL3 (GeneID 27329),1,no change,no change,1.48,-0.26
FAM169BP (GeneID 283777),1,no change,no change,-0.16,1.96
ARHGAP36 (GeneID 158763),1,no change,no change,-1.27,2.58
MRPL51 (GeneID 51258),1,no change,no change,0.56,-0.14
ZNF575 (GeneID 284346),1,no change,no change,0.34,-0.2
WAPL (GeneID 23063),1,no change,no change,-0.38,-0.41
ID2 (GeneID 3398),1,no change,no change,-0.04,-0.89
TNFSF11 (GeneID 8600),1,no change,no change,-0.18,1.84
HOMEZ (GeneID 57594),1,no change,no change,-0.6,1.01
RAB3GAP2 (GeneID 25782),1,no change,no change,1.59,-0.5
DHX36 (GeneID 170506),1,no change,no change,0.6,0.97
CA1 (GeneID 759),1,no change,no change,-0.34,0.55
DSCR4 (GeneID 10281),1,no change,no change,0.74,1.26
LRRC34 (GeneID 151827),1,no change,no change,-1.36,-0.57
ADCY8 (GeneID 114),1,no change,no change,-0.46,-0.77
GFOD2 (GeneID 81577),1,no change,no change,-0.19,0.17
KY (GeneID 339855),1,no change,no change,-0.75,0.62
STX19 (GeneID 415117),1,no change,no change,-1.06,0.07
TPCN1 (GeneID 53373),1,no change,no change,-0.9,-0.7
SACK1E (GeneID 54854),1,no change,no change,-0.88,-0.76
PHKA1 (GeneID 5255),1,no change,no change,0.66,-0.29
SLC27A1 (GeneID 376497),1,no change,no change,0.96,0.67
PLEKHS1 (GeneID 79949),1,no change,no change,-0.48,0.33
MTM1 (GeneID 4534),1,no change,no change,-1.96,-1.23
ATG4B (GeneID 23192),1,no change,no change,-1.02,-1.03
OSBPL11 (GeneID 114885),1,no change,no change,0.48,-0.46
TMEM42 (GeneID 131616),1,no change,no change,-0.27,0.26
SUMF1 (GeneID 285362),1,no change,no change,-1.57,1.74
ZIM2 (GeneID 23619),1,no change,no change,0.28,-0.68
CCDC54 (GeneID 84692),1,no change,no change,-0.48,-0.7
PIK3R6 (GeneID 146850),1,no change,no change,-0.96,2.48

In a second layout: entries from further up.
| gene knocked down | reagent no. | viability hit class | caspase hit class | viability robust z-score | caspase robust z-score |
| --- | --- | --- | --- | --- | --- |
| SNX29 (GeneID 92017) | 2 | no change | no change | 0.88 | 0.72 |
| SCN3A (GeneID 6328) | 1 | no change | no change | -0.52 | -0.72 |
| PLCH2 (GeneID 9651) | 1 | no change | no change | -0.68 | 2.42 |
| IFT38 (GeneID 23059) | 1 | no change | no change | 0.8 | 2.44 |
| FAM177B (GeneID 400823) | 1 | no change (active) | CA2 (caspase activation) | -4.88 | 7.11 |
| TUBB2B (GeneID 347733) | 1 | no change | no change | -0.3 | 1.14 |
| C6orf89 (GeneID 221477) | 1 | no change | no change | 1 | -0.66 |
| KCNK16 (GeneID 83795) | 1 | no change | no change | -2.44 | 3.25 |
